Laboratory results from publication PMC10663622 (2023).

Columns and labels:
[1] = general procedure: Fmoc solid-phase peptide synthesis; Fmoc-Ala-Wang Resin; DIC/HOBt; settings: whole synthesis, scale 0.25 mmol
peptide synthesis = settings: oxidative folding step

Substance	isolated mass [1] [µmol]	isolated yield [1] [%]	oxidative folding yield (peptide synthesis) [%]
H-Phe-Val-Asn-Gln-His-Leu-Sec(SePys)-Gly-Ser-His-Leu-Val-Glu-Ala-Leu-Tyr-Leu-Val-Cys(SPys)-Gly-Glu-Arg-Gly-Phe-Phe-Tyr-Thr-Pro-Lys-Ala-OH	2.30	10	
PEPTIDE1{G.I.V.E.Q.C.[Sec].A.S.V.C.S.L.Y.Q.L.E.N.Y.C.N}|PEPTIDE2{F.V.N.Q.H.L.[Sec].G.S.H.L.V.E.A.L.Y.L.V.C.G.E.R.G.F.F.Y.T.P.K.A}$PEPTIDE1,PEPTIDE1,6:R3-11:R3|PEPTIDE1,PEPTIDE2,7:R3-7:R3|PEPTIDE1,PEPTIDE2,20:R3-19:R3$$$V2.0			72 ± 4

For part of these data: HELM strings list residues between dots; [ac] is acetyl, [am] amide, other brackets name non-standard units.
